Data from publication PMC6642096 (Nature Communications, 2019).
No constants are given. Whether binding was seen depends on the method and setting. Binding seen in cells or lysates may run through a third protein. Some results given as binding are weak or reduced against the parent protein; the word gives no strength.

By UniProt entry, the sequences of proteins in these tests, tags left out.
UniProt O60238: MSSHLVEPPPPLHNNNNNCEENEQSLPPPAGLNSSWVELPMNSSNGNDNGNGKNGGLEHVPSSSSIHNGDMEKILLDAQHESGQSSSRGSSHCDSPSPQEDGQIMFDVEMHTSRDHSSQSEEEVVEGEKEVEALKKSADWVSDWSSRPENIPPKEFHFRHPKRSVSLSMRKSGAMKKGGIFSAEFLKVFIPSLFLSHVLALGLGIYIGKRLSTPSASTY
UniProt F5HF68: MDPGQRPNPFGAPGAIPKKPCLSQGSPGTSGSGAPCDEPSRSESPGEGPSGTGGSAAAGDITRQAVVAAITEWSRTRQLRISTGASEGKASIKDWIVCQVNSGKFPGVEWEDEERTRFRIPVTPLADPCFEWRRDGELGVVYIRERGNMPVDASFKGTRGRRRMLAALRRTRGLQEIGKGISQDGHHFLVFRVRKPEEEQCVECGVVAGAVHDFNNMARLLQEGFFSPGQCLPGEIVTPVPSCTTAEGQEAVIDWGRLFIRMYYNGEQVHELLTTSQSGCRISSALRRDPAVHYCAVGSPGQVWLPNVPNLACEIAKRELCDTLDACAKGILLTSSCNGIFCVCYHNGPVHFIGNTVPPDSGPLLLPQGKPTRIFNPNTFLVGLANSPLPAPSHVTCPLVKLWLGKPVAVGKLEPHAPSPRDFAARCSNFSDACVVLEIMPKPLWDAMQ

Target: NIX (BNIP3L), endogenous in iBCBL-1 cells (human (endogenous in iBCBL-1)) (UniProt O60238)
Experiment: co-IP

viral interferon regulatory factor 1 (vIRF-1), expressed from HHV-8 in lytic iBCBL-1 cells (from UniProt F5HF68 1-449)
binding: binds
